Data on 15 targets can be found in the supplement of paper PMC10849652.

Sequences of proteins named here, by UniProt entry; tags and fusion partners are left off. A change or cut given only in a name is not applied to a line headed by its entry.
UniProt O00425, whole entry, looked up: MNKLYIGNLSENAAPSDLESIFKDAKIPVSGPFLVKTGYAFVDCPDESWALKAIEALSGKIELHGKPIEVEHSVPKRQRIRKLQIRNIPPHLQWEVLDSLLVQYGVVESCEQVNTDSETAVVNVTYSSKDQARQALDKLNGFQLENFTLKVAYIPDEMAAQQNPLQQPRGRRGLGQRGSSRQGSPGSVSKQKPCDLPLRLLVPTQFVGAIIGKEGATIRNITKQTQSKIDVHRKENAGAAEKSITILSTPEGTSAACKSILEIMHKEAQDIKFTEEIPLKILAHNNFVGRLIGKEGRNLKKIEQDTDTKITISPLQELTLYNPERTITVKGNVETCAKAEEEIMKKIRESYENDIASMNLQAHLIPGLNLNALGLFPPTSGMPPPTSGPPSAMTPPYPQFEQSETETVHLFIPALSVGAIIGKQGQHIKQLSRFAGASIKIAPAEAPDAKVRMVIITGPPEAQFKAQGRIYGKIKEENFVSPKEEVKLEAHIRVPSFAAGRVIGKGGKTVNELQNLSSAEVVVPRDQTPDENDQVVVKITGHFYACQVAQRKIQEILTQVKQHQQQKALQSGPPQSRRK
UniProt Q92598: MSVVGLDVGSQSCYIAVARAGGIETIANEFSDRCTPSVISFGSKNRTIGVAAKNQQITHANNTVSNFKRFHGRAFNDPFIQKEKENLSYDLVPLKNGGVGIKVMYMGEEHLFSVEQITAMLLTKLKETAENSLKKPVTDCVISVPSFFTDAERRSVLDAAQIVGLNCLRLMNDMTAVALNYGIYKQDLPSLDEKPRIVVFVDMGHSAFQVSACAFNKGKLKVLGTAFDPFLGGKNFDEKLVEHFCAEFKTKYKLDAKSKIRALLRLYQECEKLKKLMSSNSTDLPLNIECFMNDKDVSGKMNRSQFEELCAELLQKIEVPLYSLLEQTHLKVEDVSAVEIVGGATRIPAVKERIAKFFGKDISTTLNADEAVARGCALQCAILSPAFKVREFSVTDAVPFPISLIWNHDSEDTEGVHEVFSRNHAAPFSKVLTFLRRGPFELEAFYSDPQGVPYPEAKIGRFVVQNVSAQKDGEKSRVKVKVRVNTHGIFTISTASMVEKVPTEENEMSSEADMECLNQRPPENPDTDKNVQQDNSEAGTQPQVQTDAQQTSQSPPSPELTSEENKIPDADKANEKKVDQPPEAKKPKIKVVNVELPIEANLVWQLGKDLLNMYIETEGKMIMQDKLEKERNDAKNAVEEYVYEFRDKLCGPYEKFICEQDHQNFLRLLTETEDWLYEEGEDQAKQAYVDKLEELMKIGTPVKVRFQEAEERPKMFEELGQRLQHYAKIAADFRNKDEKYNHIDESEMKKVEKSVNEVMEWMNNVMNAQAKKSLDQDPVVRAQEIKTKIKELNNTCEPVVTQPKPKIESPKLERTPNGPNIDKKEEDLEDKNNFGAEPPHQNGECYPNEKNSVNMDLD
UniProt P15260: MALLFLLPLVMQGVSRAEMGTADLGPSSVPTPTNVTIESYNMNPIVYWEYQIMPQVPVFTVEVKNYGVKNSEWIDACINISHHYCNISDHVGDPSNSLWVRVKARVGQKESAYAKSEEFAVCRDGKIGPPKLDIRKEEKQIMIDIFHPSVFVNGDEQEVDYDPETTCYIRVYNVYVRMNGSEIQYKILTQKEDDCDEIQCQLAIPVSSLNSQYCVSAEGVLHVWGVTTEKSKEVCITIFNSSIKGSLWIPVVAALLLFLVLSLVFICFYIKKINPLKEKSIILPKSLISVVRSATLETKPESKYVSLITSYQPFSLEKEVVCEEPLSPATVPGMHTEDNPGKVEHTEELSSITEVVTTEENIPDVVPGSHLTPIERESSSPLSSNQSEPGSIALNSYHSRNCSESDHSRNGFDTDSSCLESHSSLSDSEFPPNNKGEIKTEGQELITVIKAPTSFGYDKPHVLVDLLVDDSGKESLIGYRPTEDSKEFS
UniProt Q96T52: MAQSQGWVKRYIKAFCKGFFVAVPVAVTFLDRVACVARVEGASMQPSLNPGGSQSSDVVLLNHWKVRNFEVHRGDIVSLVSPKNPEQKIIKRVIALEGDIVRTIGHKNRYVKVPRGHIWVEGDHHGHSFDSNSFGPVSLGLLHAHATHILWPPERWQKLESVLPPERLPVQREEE
UniProt Q9NV31: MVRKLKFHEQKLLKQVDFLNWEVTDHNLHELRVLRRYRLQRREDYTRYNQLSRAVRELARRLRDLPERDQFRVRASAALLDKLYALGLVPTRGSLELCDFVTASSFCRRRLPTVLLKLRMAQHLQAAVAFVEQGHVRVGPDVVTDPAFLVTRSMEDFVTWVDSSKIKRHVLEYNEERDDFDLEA
UniProt P10809, whole entry, looked up: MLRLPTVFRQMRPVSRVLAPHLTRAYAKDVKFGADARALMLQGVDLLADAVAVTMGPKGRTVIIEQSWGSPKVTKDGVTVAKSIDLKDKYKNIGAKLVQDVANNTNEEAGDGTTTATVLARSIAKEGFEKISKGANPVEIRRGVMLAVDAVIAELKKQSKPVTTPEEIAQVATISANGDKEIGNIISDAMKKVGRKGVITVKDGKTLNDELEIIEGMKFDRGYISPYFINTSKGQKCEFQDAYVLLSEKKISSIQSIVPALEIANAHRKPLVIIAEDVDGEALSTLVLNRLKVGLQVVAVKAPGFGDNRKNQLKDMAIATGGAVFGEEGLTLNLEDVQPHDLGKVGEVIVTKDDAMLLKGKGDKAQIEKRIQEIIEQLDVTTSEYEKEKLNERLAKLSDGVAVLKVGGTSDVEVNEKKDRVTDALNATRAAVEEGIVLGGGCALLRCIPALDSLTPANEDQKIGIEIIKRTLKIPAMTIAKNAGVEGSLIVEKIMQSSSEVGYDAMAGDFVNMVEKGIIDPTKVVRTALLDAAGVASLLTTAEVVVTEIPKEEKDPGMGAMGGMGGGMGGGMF
UniProt P11142, whole entry, looked up: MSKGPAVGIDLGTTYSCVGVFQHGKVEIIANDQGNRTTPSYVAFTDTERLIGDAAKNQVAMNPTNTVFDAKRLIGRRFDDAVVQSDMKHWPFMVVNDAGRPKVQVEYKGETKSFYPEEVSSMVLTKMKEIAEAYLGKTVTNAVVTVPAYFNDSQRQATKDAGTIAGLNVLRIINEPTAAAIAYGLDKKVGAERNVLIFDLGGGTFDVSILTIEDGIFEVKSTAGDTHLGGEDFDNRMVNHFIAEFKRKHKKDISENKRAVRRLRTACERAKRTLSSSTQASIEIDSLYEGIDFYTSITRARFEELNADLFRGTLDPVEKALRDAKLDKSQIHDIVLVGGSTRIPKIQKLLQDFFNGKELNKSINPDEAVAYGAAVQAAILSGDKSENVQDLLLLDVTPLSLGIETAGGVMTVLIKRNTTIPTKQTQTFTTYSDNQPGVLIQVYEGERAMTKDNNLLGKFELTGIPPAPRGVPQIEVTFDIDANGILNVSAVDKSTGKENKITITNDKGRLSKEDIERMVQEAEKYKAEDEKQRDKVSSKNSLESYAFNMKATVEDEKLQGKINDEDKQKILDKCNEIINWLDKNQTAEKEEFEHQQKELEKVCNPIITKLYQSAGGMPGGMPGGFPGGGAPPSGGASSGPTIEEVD
UniProt Q9H0C8: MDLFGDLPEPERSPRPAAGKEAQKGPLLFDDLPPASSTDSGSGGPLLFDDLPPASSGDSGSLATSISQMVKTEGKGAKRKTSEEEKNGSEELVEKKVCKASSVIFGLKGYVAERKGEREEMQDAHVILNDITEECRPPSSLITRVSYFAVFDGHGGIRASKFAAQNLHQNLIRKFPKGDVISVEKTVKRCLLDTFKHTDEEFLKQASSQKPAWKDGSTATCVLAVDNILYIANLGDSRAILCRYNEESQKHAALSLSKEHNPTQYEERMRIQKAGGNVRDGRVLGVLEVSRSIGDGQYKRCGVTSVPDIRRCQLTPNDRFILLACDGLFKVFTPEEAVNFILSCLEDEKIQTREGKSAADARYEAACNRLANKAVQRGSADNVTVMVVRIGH
UniProt P80217: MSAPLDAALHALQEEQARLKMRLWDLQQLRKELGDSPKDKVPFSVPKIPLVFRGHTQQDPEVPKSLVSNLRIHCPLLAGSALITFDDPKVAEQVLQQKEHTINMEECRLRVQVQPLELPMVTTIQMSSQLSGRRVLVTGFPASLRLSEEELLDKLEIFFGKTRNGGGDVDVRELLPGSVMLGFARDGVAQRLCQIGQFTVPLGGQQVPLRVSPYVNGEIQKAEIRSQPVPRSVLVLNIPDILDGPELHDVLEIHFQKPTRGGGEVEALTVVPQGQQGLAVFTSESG
UniProt Q9Y4L1: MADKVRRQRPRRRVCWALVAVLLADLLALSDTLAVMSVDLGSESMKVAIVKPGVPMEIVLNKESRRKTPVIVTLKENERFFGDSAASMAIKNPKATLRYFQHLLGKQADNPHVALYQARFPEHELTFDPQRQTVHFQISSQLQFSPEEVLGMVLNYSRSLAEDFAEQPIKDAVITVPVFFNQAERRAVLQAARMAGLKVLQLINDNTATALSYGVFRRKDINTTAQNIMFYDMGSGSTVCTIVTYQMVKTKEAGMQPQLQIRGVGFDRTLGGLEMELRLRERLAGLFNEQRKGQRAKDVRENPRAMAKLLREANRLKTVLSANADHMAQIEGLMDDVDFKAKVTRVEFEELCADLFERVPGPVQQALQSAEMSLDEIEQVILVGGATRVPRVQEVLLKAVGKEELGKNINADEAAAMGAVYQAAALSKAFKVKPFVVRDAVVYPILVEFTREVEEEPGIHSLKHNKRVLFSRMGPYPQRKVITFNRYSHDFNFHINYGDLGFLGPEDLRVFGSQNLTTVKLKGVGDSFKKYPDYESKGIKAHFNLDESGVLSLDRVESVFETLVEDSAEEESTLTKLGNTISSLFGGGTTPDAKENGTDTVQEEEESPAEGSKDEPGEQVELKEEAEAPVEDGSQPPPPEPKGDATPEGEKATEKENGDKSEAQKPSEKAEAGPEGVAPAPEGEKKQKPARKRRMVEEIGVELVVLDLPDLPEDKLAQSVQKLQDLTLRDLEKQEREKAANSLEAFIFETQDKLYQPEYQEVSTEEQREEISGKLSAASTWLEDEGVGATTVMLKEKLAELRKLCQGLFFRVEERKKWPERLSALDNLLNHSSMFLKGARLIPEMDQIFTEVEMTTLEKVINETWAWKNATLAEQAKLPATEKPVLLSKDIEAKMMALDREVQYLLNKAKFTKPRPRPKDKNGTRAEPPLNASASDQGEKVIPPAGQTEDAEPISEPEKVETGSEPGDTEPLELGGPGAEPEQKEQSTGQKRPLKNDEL
UniProt Q9NX62: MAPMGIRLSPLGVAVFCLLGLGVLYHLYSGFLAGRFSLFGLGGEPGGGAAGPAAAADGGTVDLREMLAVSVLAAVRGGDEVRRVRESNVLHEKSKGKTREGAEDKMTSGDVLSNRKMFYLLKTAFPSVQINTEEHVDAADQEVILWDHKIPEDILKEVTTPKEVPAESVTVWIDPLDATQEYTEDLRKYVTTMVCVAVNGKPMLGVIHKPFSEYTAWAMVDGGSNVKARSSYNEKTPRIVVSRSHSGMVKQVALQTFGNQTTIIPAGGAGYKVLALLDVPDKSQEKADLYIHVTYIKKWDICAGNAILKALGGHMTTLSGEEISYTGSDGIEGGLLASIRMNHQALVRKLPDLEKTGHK
UniProt O43837: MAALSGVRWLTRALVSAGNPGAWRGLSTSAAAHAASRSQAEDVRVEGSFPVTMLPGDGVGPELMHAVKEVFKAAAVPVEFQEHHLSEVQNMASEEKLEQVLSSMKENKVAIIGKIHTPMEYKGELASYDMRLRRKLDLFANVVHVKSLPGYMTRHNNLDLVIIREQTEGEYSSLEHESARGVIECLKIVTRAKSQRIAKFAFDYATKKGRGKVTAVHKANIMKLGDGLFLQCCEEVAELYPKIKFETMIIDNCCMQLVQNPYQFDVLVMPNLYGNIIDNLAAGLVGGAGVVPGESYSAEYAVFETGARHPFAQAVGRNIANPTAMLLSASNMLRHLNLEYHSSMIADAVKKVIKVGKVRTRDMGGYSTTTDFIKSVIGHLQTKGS
UniProt Q9H6K1: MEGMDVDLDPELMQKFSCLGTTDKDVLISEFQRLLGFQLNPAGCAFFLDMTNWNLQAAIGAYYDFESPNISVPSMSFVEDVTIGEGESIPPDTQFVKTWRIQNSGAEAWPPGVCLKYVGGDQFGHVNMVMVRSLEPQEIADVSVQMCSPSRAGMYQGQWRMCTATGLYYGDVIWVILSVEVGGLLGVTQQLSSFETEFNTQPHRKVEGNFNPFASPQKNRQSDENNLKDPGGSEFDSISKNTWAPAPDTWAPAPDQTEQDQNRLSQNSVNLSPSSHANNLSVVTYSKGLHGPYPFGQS

This is one part of the list.

Common to all, as to assay: log2 fold change, soluble protein after heating vs DMSO (PISA); higher = thermal stabilisation; K562 lysate, 10 uM; active = over 0.2 and 3.5 SD of the protein, either way, in both replicates (recomputed)
Compound in one experiment: CCCS(=O)(=O)Nc1ccc(F)c(C(=O)c2c[nH]c3ncc(-c4ccc(Cl)cc4)cc23)c1F [vemurafenib]
The method, boiled down: (§1)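 Log-two fold change in thermal stability relative to solvent controls is reported from duplicates. For each sample, crude K562 extract from dounce-homogenised pellets in PBS pH 7.4 with 1 mM MgCl2, at 1 mg/mL protein, was treated with 10 μM compound for 30 min. Aliquots heated for 3 min across 48°C-58°C were pooled, brought to 0.5% NP-40 at 4°C and cleared at 21,000xg for 90 min. The supernatant was quantified by TMTpro 16plex LC-MS/MS with channel sums equalised.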

Compound in experiment [1]: CCCS(=O)(=O)Nc1ccc(F)c(C(=O)c2c[nH]c3ncc(Cl)cc23)c1F
The method, boiled down: as §1

Compound in a further experiment: CCN(CCCOc1ccc2c(Nc3cc(CC(=O)Nc4cccc(F)c4)[nH]n3)ncnc2c1)CCOP(=O)(O)O [barasertib]
The method, boiled down:
as §1

Compound in experiment [2]: CC[C@@H]1C(=O)N(C)c2cnc(Nc3ccc(C(=O)NC4CCN(C)CC4)cc3OC)nc2N1C1CCCC1
The method, boiled down:
as §1

Compound in another experiment: CC[C@@H]1C(=O)N(C)c2cnc(Nc3ccc(C(=O)N[C@H]4CC[C@H](N5CCN(CC6CC6)CC5)CC4)cc3OC)nc2N1C(C)C [volasertib]
The method, boiled down:
as §1

Compound in experiment [3]: CCn1c(C(=O)N(C2CC2)C2CC2)cc2c3c(ncn3C)c(Nc3cc(C)n(C)n3)nc21
The method, boiled down:
as §1

Compound in experiment [4]: CCn1cc(-c2ccnc3[nH]c(-c4cccc(CN(C)C)c4)cc23)c(-c2ccc(NC(=O)N(C)C)cc2)n1
The method, boiled down:
as §1

Compound in experiment [5]: CN1CCC(CNc2ccc3ncc(-c4cccc(OC(F)(F)F)c4)n3n2)CC1
The method, boiled down: as §1

Compound in the next experiment: CN1CCN(CCOc2cc(OC3CCOCC3)c3c(Nc4c(Cl)ccc5c4OCO5)ncnc3c2)CC1 [saracatinib]
The method, boiled down: as §1

Compound in the next experiment: CN1CCN(c2nc(C3=C(c4c[nH]c5ccccc45)C(=O)NC3=O)c3ccccc3n2)CC1 [sotrastaurin]
The method, boiled down:
as §1

As to IGF2BP3 (UniProt O00425), the log2 fold change with vemurafenib was inactive: 0.024; in experiment [1] it was inactive: 0.006; in the experiment with barasertib, inactive: 0.016; in experiment [2] it was inactive: -0.106; with volasertib it was inactive: -0.025; in [3], inactive: -0.016. The log2 fold change in experiment [4] was inactive: -0.062; in experiment [5], inactive: -0.022; with saracatinib it was inactive: 0.026; with sotrastaurin it was inactive: 0.011.
HSPH1 (UniProt Q92598): the log2 fold change is inactive: -0.006 with vemurafenib; inactive: -0.004 in [1]; inactive: -0.019 with barasertib; inactive: 0.019 in experiment [2]; inactive: -0.006 with volasertib; inactive: 0.006 in [3]. Besides, the log2 fold change in experiment [4] is inactive: -0.004; in [5], inactive: 0.003; with saracatinib it was inactive: -0.005; with sotrastaurin, inactive: -0.002.
Regarding IFNGR1 (UniProt P15260), the log2 fold change in the experiment with vemurafenib is inactive: 0.182; in experiment [1], inactive: -0.07; with barasertib, inactive: -0.051; in experiment [2] it was inactive: 0.234; with volasertib, inactive: 0.08; in [3] it was inactive: -0.153. For the same target, the log2 fold change is active: -0.641 in experiment [4], inactive: 0.331 in experiment [5], inactive: 0.032 with saracatinib and inactive: -0.018 in the experiment with sotrastaurin.
With IMMP2L (UniProt Q96T52), the log2 fold change in the experiment with vemurafenib is inactive: 0.013; in experiment [1], inactive: -0.028; in the experiment with barasertib, inactive: 0.145; in [2], inactive: 0.095; with volasertib it was inactive: 0.017; in experiment [3] it was inactive: -0.032. The log2 fold change was inactive: -0.079 in [4], inactive: 0.003 in experiment [5], inactive: 0.038 in the experiment with saracatinib and inactive: 0.061 with sotrastaurin.
Take IMP3 (UniProt Q9NV31): the log2 fold change with vemurafenib is inactive: 0.173; in [1], inactive: -0.138; in the experiment with barasertib, inactive: -0.015; in [2], inactive: 0.194; with volasertib, inactive: 0.008; in [3] it was inactive: -0.063. In addition, the log2 fold change in experiment [4] was inactive: -0.149; in experiment [5] it was inactive: 0.009; with saracatinib, inactive: 0.056; in the experiment with sotrastaurin, inactive: -0.024.
Consider HSPD1 (UniProt P10809), for which the log2 fold change in the experiment with vemurafenib is inactive: 0.004; in experiment [1] it was inactive: -0.008; with barasertib it was inactive: -0.021; in [2] it was inactive: 0.03; with volasertib it was inactive: 0.037; in experiment [3], inactive: -0.023. The log2 fold change in experiment [4] is inactive: 0.003; in experiment [5], inactive: -0.022; in the experiment with saracatinib, inactive: 0.002; in the experiment with sotrastaurin it was inactive: -0.026.
For the target HSPA8 (UniProt P11142), the log2 fold change was inactive: -0.024 with vemurafenib; inactive: 0.003 in [1]; inactive: -0.035 in the experiment with barasertib; inactive: -0.031 in experiment [2]; inactive: -0.003 in the experiment with volasertib; inactive: 0.002 in experiment [3]. Also, the log2 fold change is inactive: -0.005 in experiment [4], inactive: 0.014 in experiment [5], inactive: -0.001 with saracatinib and inactive: 0.004 with sotrastaurin.
Regarding ILKAP (UniProt Q9H0C8), the log2 fold change is inactive: -0.037 with vemurafenib; inactive: -0.01 in experiment [1]; inactive: -0.04 with barasertib; inactive: -0.048 in experiment [2]; inactive: -0.017 with volasertib; inactive: 0.002 in [3]. Moreover, the log2 fold change in [4] was inactive: 0.016; in [5] it was inactive: 0; in the experiment with saracatinib, inactive: -0.013; with sotrastaurin, inactive: 0.021.
Consider IFI35 isoform 2 (UniProt P80217), for which the log2 fold change was inactive: 0.001 with vemurafenib; inactive: 0.003 in [1]; inactive: 0.008 in the experiment with barasertib; inactive: -0.006 in experiment [2]; inactive: 0.02 with volasertib; inactive: -0.014 in experiment [3]. For the same target, the log2 fold change in experiment [4] was inactive: -0.217; in [5] it was inactive: 0.053; with saracatinib it was inactive: -0.015; in the experiment with sotrastaurin, inactive: -0.006.
For the target HSPG2 (UniProt P98160), the log2 fold change with vemurafenib is inactive: 0.02; in experiment [1], inactive: 0.009; with barasertib it was inactive: 0.134; in experiment [2], inactive: -0.048; with volasertib, inactive: -0.026; in [3] it was inactive: -0.026. Besides, the log2 fold change was inactive: -0.161 in experiment [4], inactive: 0.179 in [5], inactive: 0.058 with saracatinib and inactive: 0.014 with sotrastaurin.
HYOU1 (UniProt Q9Y4L1): the log2 fold change is inactive: 0.03 with vemurafenib; inactive: -0.014 in experiment [1]; inactive: -0.029 with barasertib; inactive: 0.016 in experiment [2]; inactive: 0.008 with volasertib; inactive: -0.006 in experiment [3]. For the same target, the log2 fold change in experiment [4] was inactive: 0.089; in experiment [5] it was inactive: -0.008; with saracatinib, inactive: -0.01; with sotrastaurin, inactive: -0.005.
Consider IMPAD1 (UniProt Q9NX62), for which the log2 fold change with vemurafenib was inactive: 0.01; in [1] it was inactive: -0.019; with barasertib, inactive: 0.027; in [2], inactive: 0.098; with volasertib, inactive: 0.025; in experiment [3], inactive: 0. Also, the log2 fold change in [4] was inactive: 0.022; in [5] it was inactive: 0.007; in the experiment with saracatinib, inactive: 0.013; in the experiment with sotrastaurin, inactive: 0.004.
In the case of IDH3B (UniProt O43837), the log2 fold change with vemurafenib is inactive: 0.035; in experiment [1], inactive: -0.006; in the experiment with barasertib, inactive: 0.031; in experiment [2] it was inactive: 0.043; in the experiment with volasertib it was inactive: -0.004; in experiment [3] it was inactive: -0.012. Further, the log2 fold change in experiment [4] was inactive: -0.026; in [5], inactive: 0.003; in the experiment with saracatinib, inactive: 0.008; with sotrastaurin, inactive: -0.01.
Turning to INTS11 (UniProt Q5TA45), the log2 fold change is inactive: -0.036 with vemurafenib; inactive: -0.035 in experiment [1]; inactive: 0.005 with barasertib; inactive: 0.048 in [2]; inactive: -0.008 in the experiment with volasertib; inactive: 0.012 in experiment [3]. Also, the log2 fold change in experiment [4] is inactive: -0.023; in [5], inactive: -0.02; with saracatinib it was inactive: 0.002; in the experiment with sotrastaurin, inactive: -0.022.
Turning to ILRUN (UniProt Q9H6K1), the log2 fold change with vemurafenib is inactive: -0.012; in experiment [1] it was inactive: 0.048; in the experiment with barasertib, inactive: 0.06; in experiment [2] it was inactive: -0.001; with volasertib, inactive: -0.058; in [3], inactive: -0.059. In addition, the log2 fold change in experiment [4] is inactive: -0.109; in experiment [5] it was inactive: 0.067; with saracatinib, inactive: 0.024; with sotrastaurin, inactive: -0.003.
